From patent US20210128511A1, “PRODRUG COMPOSITIONS AND METHODS OF TREATMENT” (AQUESTIVE THERAPEUTICS, INC., priority 2019, published 2021)

Experiment: Intramuscular study in minipig for prodrugs, epinephrine pharmacokinetic profile
Assay type: in vivo, male Yucatan miniature swine
Settings: prodrug to epinephrine; actual dose 2 mg (0.1 mg/kg) IM
Protocol: (§1) Yucatan minipigs (n=4 males per group) were weighed and weights were recorded. The morning of the study, the vascular access port (VAP) of each animal was checked for proper functioning. Minipigs with viable VAP were removed from the home cage and placed in a holding sling. The animals were fasted overnight prior to dose administration and for the duration of PK blood collections.
All the formulations were prepared fresh on the day of dosing and maintained on wet ice until dosing. The dose was injected in the rear hind limb. Prior to administering, the plunger of the syringe was aspirated and observed for any blood that may flow into the syringe. If no blood was observed, it was verified that the needle was in proper placement, and the test articles were administered.
At each specified time-point, 6 mL of whole blood was collected into blood collection tubes containing K2EDTA as the anticoagulant and sodium metabisulfite as stabilizer. Sodium metabisulfite was at a concentration of 8.9 mM, pH 3 (60 μL/6 mL of whole blood of the 890 mM stock solution). SigmaFast (600 μL of SigmaFast 1× solution to 6 mL of whole blood) was added immediately to the tubes as the enzyme arresting agent. The tubes were inverted several times for mixing upon addition of SigmaFast solution. […] The resulting plasma was obtained and stored at approximately […]. The analysis of epinephrine was done using LC-MS/MS method.
as §1, with “Applicants sought to identify epinephrine prodrugs with higher permeability and slower hydrolysis after intramuscular (IM) administrations. […] Yucatan” for “Yucatan”, “minipigs” for “minipigs (n=4 males per group)”, “in the” for “weights were recorded. The”
The dose was injected in the rear hind limb. […] At each specified time-point, 6 mL of whole blood was collected into blood collection tubes containing anticoagulant and stabilizer. Protease inhibitor cocktail was added and the tubes were inverted several times for mixing. All blood samples were centrifuged and the resulting plasma was analyzed for epinephrine using LC-MS/MS method.
In the case of `CNCC(O)c1ccc(OC(=O)c2ccccc2)c(OC(=O)c2ccccc2)c1` (stereo not shown) [AQEP-04], the Conversion ratio is reported as 0.43. For `CCC(C)(C)C(=O)Oc1ccc(C(O)CNC)cc1OC(=O)C(C)(C)CC` (stereo not shown) [AQEP-02], the Conversion ratio was 0.44. In the case of `CNCC(O)c1ccc(OC(=O)N(C)C)c(OC(=O)N(C)C)c1` (stereo not shown) [AQEP-03], the Conversion ratio is reported as 0.51. `CNCC(OC(=O)C(C)(C)C)c1ccc(OC(=O)C(C)(C)C)c(OC(=O)C(C)(C)C)c1` (stereo not shown) [AQEP-01] gave a Conversion ratio of 0.39.
